No constants are given. Whether binding was seen depends on the method and setting. Binding seen in cells or lysates may run through a third protein. For part of these data: Binding can be weak; no strength is given.
Experiments:
[1] = target: T1, Phospholipase C γ1 (PLCγ1), endogenous (human (endogenous in HEK293 and HEK293T)) (UniProt P19174); assay: co-IP; HEK293T transiently transfected with pFJ-K15P or pFJ-K15M; endogenous PLCγ1 immunoprecipitated; K15 detected with an antibody to the FLAG tag
T1 sequence: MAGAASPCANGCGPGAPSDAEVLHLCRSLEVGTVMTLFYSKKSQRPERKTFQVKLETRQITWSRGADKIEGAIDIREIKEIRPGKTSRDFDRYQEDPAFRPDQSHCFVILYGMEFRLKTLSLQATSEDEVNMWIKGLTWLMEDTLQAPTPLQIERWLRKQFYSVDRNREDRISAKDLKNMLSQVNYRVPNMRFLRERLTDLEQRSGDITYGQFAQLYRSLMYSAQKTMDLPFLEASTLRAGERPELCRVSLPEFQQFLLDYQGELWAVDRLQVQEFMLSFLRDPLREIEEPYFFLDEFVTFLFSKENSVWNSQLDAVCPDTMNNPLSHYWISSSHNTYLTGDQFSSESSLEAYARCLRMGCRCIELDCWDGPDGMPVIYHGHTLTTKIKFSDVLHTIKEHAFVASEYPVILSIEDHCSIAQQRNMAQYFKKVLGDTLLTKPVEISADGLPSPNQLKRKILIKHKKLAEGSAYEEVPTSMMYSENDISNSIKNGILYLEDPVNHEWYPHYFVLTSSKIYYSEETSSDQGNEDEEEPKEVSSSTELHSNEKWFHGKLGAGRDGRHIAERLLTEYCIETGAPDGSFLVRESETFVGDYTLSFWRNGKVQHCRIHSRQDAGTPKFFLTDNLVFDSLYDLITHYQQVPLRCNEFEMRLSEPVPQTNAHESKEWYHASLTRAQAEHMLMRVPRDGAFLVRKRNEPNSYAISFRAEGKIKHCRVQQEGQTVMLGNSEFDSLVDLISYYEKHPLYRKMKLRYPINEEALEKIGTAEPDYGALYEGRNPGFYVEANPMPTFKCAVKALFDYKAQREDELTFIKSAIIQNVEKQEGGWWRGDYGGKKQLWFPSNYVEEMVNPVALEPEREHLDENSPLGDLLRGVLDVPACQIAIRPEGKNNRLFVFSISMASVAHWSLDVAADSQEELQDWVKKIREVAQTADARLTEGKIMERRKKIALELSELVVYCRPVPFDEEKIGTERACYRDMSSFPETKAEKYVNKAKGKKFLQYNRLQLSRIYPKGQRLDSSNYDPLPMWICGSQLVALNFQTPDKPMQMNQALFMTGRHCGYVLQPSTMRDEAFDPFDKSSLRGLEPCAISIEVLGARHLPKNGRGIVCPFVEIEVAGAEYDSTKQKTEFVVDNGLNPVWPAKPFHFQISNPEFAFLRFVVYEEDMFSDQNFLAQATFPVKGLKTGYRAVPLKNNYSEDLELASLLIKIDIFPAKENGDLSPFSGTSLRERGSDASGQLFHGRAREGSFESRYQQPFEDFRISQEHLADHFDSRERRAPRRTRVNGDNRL

[2] = target: GST fusion of the cytoplasmic domain of K15-P, YF/ΔSH3 double mutant (Kaposi's Sarcoma Herpesvirus (KSHV, HHV8)); assay: pull-down; GST fusion proteins on glutathione sepharose beads incubated with cleared HEK293T lysates (TBS-T) overnight at 4°C; bound endogenous PLCγ1 detected by Western blot; only the target purified
[3] = target: GST fusion of the cytoplasmic domain of K15-P, ΔSH3 (Kaposi's Sarcoma Herpesvirus (KSHV, HHV8)); assay: as above

Molecule: FLAG-tagged K15M (pFJ-K15M)
- binding [1]: binds

B1: Phospholipase C γ1 (PLCγ1), endogenous (enzyme, UniProt P19174 1-1290)
chain: T1 sequence
- binding [2]: no binding
- binding [3]: binds
